Primary screen of a compound library

Values are the deposited “Percent Effect”, in %.
The controls that fix the scale are not given in the record; negative values are as filed.
The compounds are a random part of those screened.
Two or more numbers in one place are separate tests of the same structure; such repeats can differ widely.

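Viability assay of Plasmodium falciparum sporozoites; the read-out is not stated. The concentration is filed as 10 mM, unlikely as a test dose, so the dose is not known. Direction is inferred from retests: higher values go with lower viability. Strong results were mostly tested again. About 34,000 compounds were tested under these conditions; 0.84% (about 280) showed 50% or more at least once.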

For CN(C)C(C(=O)N1CC(Oc2ccccc2F)C1)c1ccccc1F (stereo not drawn) the result was 16.54%.
For CN(Cc1cnn(C)c1)C(=O)NC1CCN(Cc2ccccn2)CC1 the result was -12.43%.
For CN(C(=O)c1ccc(Cl)cn1)c1ccccc1S(C)(=O)=O the result was -0.3286%.
For CCN(CC1CN(Cc2ncc(C)o2)CCO1)c1cccnn1 (stereo not drawn) the result was -0.8584%.
For CN1CC(c2ccccc2)CC2(CCN(CC(=O)N(C)C)CC2)C1 (stereo not drawn) the result was 8.836%.
For [H][C@@]12C[C@H](c3nnc(C4CC4)o3)O[C@@]1([H])CCN(CC1CCOCC1)C2 the result was 4.384%.
For Cc1ccc(NC(=O)c2ccc(=O)n(CC(=O)Nc3nccs3)n2)cc1 the result was 6.356%.
For CN(C)CC(=O)N1CCN(CC(O)c2ccc(F)cc2)CC1 (stereo not drawn) the result was 15.97%.
For NC(=O)C1CN(C(=O)Nc2ccccc2SC2CCCC2)CCO1 (stereo not drawn) the result was 8.161%.
For Nc1ncc(-c2ccc(NC(=O)[C@@H]3CCCCN3)cc2)cn1 the result was 6.351%.
For CCc1nc(NC2CCN(CC(=O)NC3CC3)CC2)c2cnn(C)c2n1 the result was 11.81%.
For COc1ccc(C(=O)N2CCCCC2c2nc(C)cs2)nn1 (stereo not drawn) the result was -1.145%.
For CCN(Cc1cnn(CC)c1)Cc1c(Cl)cncc1Cl the result was 2.336%.
For O=C(CCSc1ccccc1F)NS(=O)(=O)c1ccc2c(c1)OCCO2 the result was 8.626%.
For CN(C)C(=O)c1cn[nH]c1C1(C)CCCN(Cc2ccccn2)C1 (stereo not drawn) the result was 6.648%.
For COc1cc(OC)c(C2Nc3cc(Cl)ccc3C3=NCCN32)cc1OC (stereo not drawn) the result was -4.037%.
For CC(c1ccccc1)N(C)CC(=O)NCCC#N (stereo not drawn) the result was -11.09%.
For COCC1CN(Cc2c(C)noc2C)Cc2ccnn2C1.O=C(O)C(F)(F)F.O=C(O)C(F)(F)F (stereo not drawn) the result was 2.02%.
For O=C(c1cc(C2CC2)[nH]n1)N1CCN(Cc2ccc3c(c2)OCO3)CC1 the result was 7.881%.
For Cc1nc(COc2ccc(N(C)S(C)(=O)=O)cc2)sc1C the result was 53.33% and 78.78% and 74.56%.
For CN(C)C(=O)C1(CCCc2ccncc2)CCCN1 (stereo not drawn) the result was -4.621%.
For Cc1ncc(-c2ccccn2)c(CCNC(=O)CCC2CCCO2)n1 (stereo not drawn) the result was 2.027%.
For CC(C)C(=O)N1CCC2(COCc3cnc(-c4cccnc4)nc32)C1 (stereo not drawn) the result was 10.94%.
For Cn1c(NCC(O)c2ccc(F)cc2F)c(C#N)c(=O)n(C)c1=O (stereo not drawn) the result was 5.181%.
For CN(C)c1ncccc1CNCc1cccc(O)c1 the result was 0.4579%.
For CCC(C)NS(=O)(=O)Cc1cccc(NC(=O)C(C)C)c1 (stereo not drawn) the result was -1.443%.
For Cn1ccc(C(=O)N2CCC(Cc3cccc4ncccc34)CC2)n1 the result was 10.54%.
For Cc1cc(CN2CCN(CC(O)c3ccc(C)c(C)c3)CC2)no1 (stereo not drawn) the result was 4.831%.
For [H][C@]12COC[C@H](N3CCN(C)CC3)[C@@]1([H])CN(Cc1cccnc1)C2 the result was 0.6076%.
For CN(CCNC(=O)c1cnc(-c2ccncc2)nc1)S(C)(=O)=O the result was 6%.
For CN(C)C(=O)CN1CCC2(CCN(C(=O)N(C)C)CC2)C1=O the result was -2.014%.
For COCCN1CCC(NCc2ccc(F)cc2F)C1 (stereo not drawn) the result was 1.807%.
For Cc1noc(C)c1C(=O)N1Cc2ncn(C)c2C(COCC(C)C)C1.O=C(O)C(F)(F)F (stereo not drawn) the result was -9.107%.

Repeated from the top, 4 entries:

Result for CN(C)C(C(=O)N1CC(Oc2ccccc2F)C1)c1ccccc1F (stereo not drawn) was 16.54%.
Result for CN(Cc1cnn(C)c1)C(=O)NC1CCN(Cc2ccccn2)CC1 was -12.43%.
Result for CN(C(=O)c1ccc(Cl)cn1)c1ccccc1S(C)(=O)=O was -0.3286%.
Result for CCN(CC1CN(Cc2ncc(C)o2)CCO1)c1cccnn1 (stereo not drawn) was -0.8584%.

The values are deposited in ChEMBL (CHEMBL3988442, “University of Dundee, Small-Polar-MMV Screening Library” (2021)).